Results published in patent US9879050B2 (priority 2013, dated 2018).

Test: general procedure: solution-phase peptide synthesis; TPTU/HOBT/DIEA; HATU/DIEA

Row | Substance | step yield (late stage modification step) | step yield (coupling step)
1 | (S)-3-(3,5-Difluorophenyl)-N-((6S,8aS,14aS,20S,21 S,23aS)-6,21-Dimethyl-5,8,14,19,23-Pentaoxooctadecahydro-1H,5H,14H,19H-Pyrido[2,1-I]Dipyrrolo[2,1-C:2′,1′-L][1]Oxa[4,7,10,13]Tetraazacyclohexadecin-20-Yl)-2-(3-(P-Tolyl)Ureido)Propanamide | 54% | 
2 | Tert-Butyl (S)-2-((S)-2-(((S)-1-((2S,4S)-2-((((2S,3S)-3-(((Benzyloxy)Carbonyl)Amino)-4-Oxo-4-(2-Oxo-2-Phenylethoxy)Butan-2-Yl)Oxy)Carbonyl)-4-Methylpyrrolidin-1-Yl)-1-Oxopropan-2-yl)Carbamoyl)Piperidine-1-Carbonyl)Pyrrolidine-1-Carboxylate |  | 79%
3 | (S)—N-((2R,6S,8aS,14aS,20S,23aS)-2,6-Dimethyl-5,8,14,19,23-Pentaoxooctadecahydro-1H,5H,14H,19H-Pyrido[2,1-I]Dipyrrolo[2,1-C:2′,1′-L][1]Oxa[4,7,10,13]Tetraazacyclohexadecin-20-Yl)-3-Phenyl-2-(3-Phenylureido)Propanamide | 40% | 
